# Measured values: patent US11690837B2, “Methods of improving cell-based therapy” (THE REGENTS OF THE UNIVERSITY OF CALIFORNIA, priority 2014, dated 2023)
# “Also recorded” adds a separate entry of the source. At least one structure is not confirmed: it was looked up by name or label, or the drawing left a doubt.
# System: MI mice
# Experiment: Cardiac remodeling post MI in mice treated with TPPU
# Type: in vivo
smiles,measurement,setting,value
"CCC(=O)N1CCC(NC(=O)Nc2ccc(OC(F)(F)F)cc2)CC1 [TPPU, 1-trifluoromethoxyphenyl-3-(1-propionylpiperidin-4-yl)urea]",amount of collagen deposition,"MI mice with TPPU vs. MI alone, Sirius red, wheat germ agglutinin",significant reduction; also recorded: significant decrease
same,cardiac dilatation,"MI mice, TPPU started 1 week post MI, compared to MI alone",significant reduction
